Library screening results

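Whole-cell assay for inhibitors of Mycobacterium tuberculosis growth, labelled Cornell in the record; the read-out is not stated. The concentration is filed as 10 mM, unlikely as a test dose, so the dose is not known. Higher means stronger inhibition (inferred from two other growth screens of the library). Of about 53,000 compounds tested this way, about 900 (1.7%) reached 50% or more in at least one test.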

Each number is a percent effect as filed.
How 0% and 100% were set is not recorded. Most values in the screen are low, and negative values occur.
The compounds are a random part of those screened.

{"smiles": "O=C(O)C(F)(F)F.[H][C@@]12C[C@@H](C(=O)NC(C)C)C[C@@]1([H])N(Cc1ccco1)CCO2", "percent effect": 13.7}
{"smiles": "OCc1cc2ccccc2nc1N1CCCCC1", "percent effect": -10.79}
{"smiles": "Cc1cnc(N2CCc3c(CN(C)Cc4ccco4)cncc3C2)nc1", "percent effect": 16.89}
{"smiles": "O=C(Nc1cccc(N2CCN(CC3CC3)CC2)c1)C1CCCO1", "stereo": "stereo unspecified", "percent effect": 5.35}
{"smiles": "O=C(CCn1cncn1)NCC1CCS(=O)(=O)C1", "stereo": "stereo unspecified", "percent effect": 12.24}
{"smiles": "CCOC(=O)c1sc(NC(=O)C(C)(C)C)c(C#N)c1C", "percent effect": -40.54}
{"smiles": "CC(C)c1nc(CN(C)C2CCN(Cc3nc(C4CC4)no3)C2)no1", "stereo": "stereo unspecified", "percent effect": -4.032}
{"smiles": "CC(C)N(C)CCCNC(=O)c1cnn(C(C)(C)C)c1C(F)(F)F", "percent effect": 21.77}
{"smiles": "Cc1ccc(C2CCCN(S(=O)(=O)N3CCOCC3)C2)nc1", "stereo": "stereo unspecified", "percent effect": 14.62}
{"smiles": "Cc1nc(C)c(C(=O)N2Cc3cc(F)ccc3CC2C)o1", "stereo": "stereo unspecified", "percent effect": 15.14}
{"smiles": "NC(=O)N1CCCC(c2nc(-c3cccnn3)no2)C1", "stereo": "stereo unspecified", "percent effect": -18.2}
{"smiles": "COC(=O)CCC(=O)N1CCc2nc(C(=O)N3CCCCC3)sc2CC1", "percent effect": 22.72}
{"smiles": "CN(C(=O)CN1CCCc2cc(F)cc(F)c21)c1ccccc1", "percent effect": -5.262}
{"smiles": "O=C1CCc2cc(-c3csc(CCN4CCCC4=O)n3)ccc2N1", "percent effect": -20.28}
{"smiles": "CCn1c(SCC(N)=O)nnc1-c1csc2c1CCCC2", "percent effect": 6.59}
{"smiles": "c1cnnc(N2CCCC2CNCc2nc3ccccc3o2)c1", "stereo": "stereo unspecified", "percent effect": 108.2}
{"smiles": "O=C(O)C(F)(F)F.[H][C@@]12COC[C@]1(CNS(=O)(=O)CC)CN(CCc1ccccc1)C2", "percent effect": -1.003}
{"smiles": "CN1CCCC(Cc2cncc(C(=O)NC3CC3)c2)C1", "stereo": "stereo unspecified", "percent effect": -24.71}
{"smiles": "CC(C)Cc1nc(CS(=O)(=O)C(C)C(=O)N2CCOCC2)no1", "stereo": "stereo unspecified", "percent effect": 14.54}
{"smiles": "CCc1ccccc1-c1cc(OC)nc(N)n1", "percent effect": -39.28}
{"smiles": "CC(C)Nc1nc2c(c(NC3CC3)n1)CN(C(=O)c1ccnnc1)CC2", "percent effect": -23.88}
{"smiles": "Cc1cc(N2CCCC2c2cncc(N(C)C)n2)ncn1", "stereo": "stereo unspecified", "percent effect": -13.71}
{"smiles": "CCC(CNC(=O)c1ccc(C(N)=O)cc1)Oc1cccc(F)c1", "stereo": "stereo unspecified", "percent effect": 39.25}
{"smiles": "O=C(NCCc1nnc2n1CCCCC2)N1CCC2(CCOC2)C1", "stereo": "stereo unspecified", "percent effect": -4.359}
{"smiles": "O=C(NCC(F)(F)F)C1CSCN1S(=O)(=O)c1ccc(F)cc1Cl", "stereo": "stereo unspecified", "percent effect": -5.104}
{"smiles": "CCc1nnsc1C(=O)N(C)Cc1ccc(C)o1", "percent effect": -2.853}
{"smiles": "COC(=O)c1ccc(N2CCN(CC(=O)NC(N)=O)C(C)C2)cc1", "stereo": "stereo unspecified", "percent effect": 0.3243}
{"smiles": "CCC(=O)NCCCn1c(-c2cccnc2C)cc2cccnc21.Cl", "percent effect": 9.905}
{"smiles": "O=C(N1CCCC1)N1CCCC2(CCN(c3ccsc3)C2=O)C1", "stereo": "stereo unspecified", "percent effect": 22.71}
{"smiles": "Cc1cccc(N2CCN(C(=O)CN3CCC(C(N)=O)CC3)CC2)c1", "percent effect": 19.88}
{"smiles": "Cc1cc(NC(=O)CN(CC2CCOC2)C2CC2)no1", "stereo": "stereo unspecified", "percent effect": -14.48}
{"smiles": "[H][C@@]12CCN(C(=O)c3cc(C)[nH]c3C)C[C@@]1([H])O[C@@H](c1ccncn1)C2", "percent effect": 9.756}
{"smiles": "CC(C)N1CCOCC2(CN(Cc3ccco3)CCO2)C1", "stereo": "stereo unspecified", "percent effect": 44.12}
{"smiles": "CCN(Cc1cscn1)CC1(C)Cc2c(N)nc(N)nc2O1", "stereo": "stereo unspecified", "percent effect": -9.754}
{"smiles": "CC1(c2ccccc2)CCCN(Cc2cncn2C2CC2)C1", "stereo": "stereo unspecified", "percent effect": -6.001}
{"smiles": "Cc1nc(Nc2nnc(C)s2)cc(C2CCCN2)n1.Cl", "stereo": "stereo unspecified", "percent effect": 10.04}
{"smiles": "[H][C@]12CN(Cc3ccccc3Cl)C[C@]1([H])N(CCOC)C(=O)CO2", "percent effect": -4.621}
{"smiles": "CC(C)Cc1noc(CN2CCN(c3nccs3)CC2)n1", "percent effect": 10.62}
{"smiles": "Cc1ccnn1CC(=O)N1CCCN(C2Cc3ccccc3C2)CC1", "percent effect": 4.12}

2 of the entries, repeated:

- CC(C)N1CCOCC2(CN(Cc3ccco3)CCO2)C1 (stereo unspecified) : 44.12%
- Cc1nc(Nc2nnc(C)s2)cc(C2CCCN2)n1.Cl (stereo unspecified) : 10.04%

Source: ChEMBL document CHEMBL3988442, “University of Dundee, Small-Polar-MMV Screening Library” (2021).